Results taken from patent US20230414515A1, “ACETIC ACID AS PROCESSING AID IN SPRAY DRYING FOR BASIC DRUGS” (Lonza Bend Inc., priority 2020, published 2023).
At least one structure is not confirmed: it was looked up by name or label, or the drawing left a doubt.

Test: Dasatinib concentration dissolved in methanol with acetic acid (titration of slurry)
Type: physicochemical

Q: Which results are given for `Cc1nc(Nc2ncc(C(=O)Nc3c(C)cccc3Cl)s2)cc(N2CCN(CCO)CC2)n1` [dasatinib]?
A: fold higher concentration than in methanol without acetic acid (methanol with 21.5 eq acetic acid vs methanol alone (example 1)): ca. 6 fold; concentration of dissolved dasatinib (methanol with 500 microliter glacial acetic acid (21.5 eq) per 10 mL, 25° C.): approximately 19 mg/mL
